Source: patent publication EP4695306A2
Results are given in words; binding and its absence hold for the method and conditions named. Some results given as binding are weak or reduced against the parent protein; the word gives no strength. Tags and fused reporters may be left off the sequences shown.

The chains behind the UniProt entries cited, without tags or fusion partners. Where a name states a change or a piece, a line headed by the entry shows the natural chain unless it says otherwise.
UniProt P01870: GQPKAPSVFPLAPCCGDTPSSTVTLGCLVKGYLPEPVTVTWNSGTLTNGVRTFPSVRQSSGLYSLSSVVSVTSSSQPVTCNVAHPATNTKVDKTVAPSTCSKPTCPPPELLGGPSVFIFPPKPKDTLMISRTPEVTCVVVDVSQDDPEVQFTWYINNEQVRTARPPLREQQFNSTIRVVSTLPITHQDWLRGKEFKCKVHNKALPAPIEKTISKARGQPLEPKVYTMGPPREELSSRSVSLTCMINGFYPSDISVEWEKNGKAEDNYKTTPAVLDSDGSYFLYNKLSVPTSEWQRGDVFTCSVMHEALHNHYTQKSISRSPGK

Target: rabbit IgG Fc fragment (Oryctolagus cuniculus) (UniProt P01870)
Experiment: cryo-EM of the complex

B1: anti-rabbit IgG Fc nanobody TP897 (VHH)
VHH: QVQLVESGGGLVQAGDSLRLSCVASGRSLDGATMRWYRQAPGKEREFVAGIFWDEIGTEYADTAKGRFTISRDNAKNTIYLQMTNLRSEDTAMYYCNGLVFGGEYWGQGTQVTVSS
  binding: binds
